# Some of the results follow.
# Sequences of proteins named here, by UniProt entry; tags and fusion partners are left off. A change or cut given only in a name is not applied to a line headed by its entry.
# UniProt Q15052: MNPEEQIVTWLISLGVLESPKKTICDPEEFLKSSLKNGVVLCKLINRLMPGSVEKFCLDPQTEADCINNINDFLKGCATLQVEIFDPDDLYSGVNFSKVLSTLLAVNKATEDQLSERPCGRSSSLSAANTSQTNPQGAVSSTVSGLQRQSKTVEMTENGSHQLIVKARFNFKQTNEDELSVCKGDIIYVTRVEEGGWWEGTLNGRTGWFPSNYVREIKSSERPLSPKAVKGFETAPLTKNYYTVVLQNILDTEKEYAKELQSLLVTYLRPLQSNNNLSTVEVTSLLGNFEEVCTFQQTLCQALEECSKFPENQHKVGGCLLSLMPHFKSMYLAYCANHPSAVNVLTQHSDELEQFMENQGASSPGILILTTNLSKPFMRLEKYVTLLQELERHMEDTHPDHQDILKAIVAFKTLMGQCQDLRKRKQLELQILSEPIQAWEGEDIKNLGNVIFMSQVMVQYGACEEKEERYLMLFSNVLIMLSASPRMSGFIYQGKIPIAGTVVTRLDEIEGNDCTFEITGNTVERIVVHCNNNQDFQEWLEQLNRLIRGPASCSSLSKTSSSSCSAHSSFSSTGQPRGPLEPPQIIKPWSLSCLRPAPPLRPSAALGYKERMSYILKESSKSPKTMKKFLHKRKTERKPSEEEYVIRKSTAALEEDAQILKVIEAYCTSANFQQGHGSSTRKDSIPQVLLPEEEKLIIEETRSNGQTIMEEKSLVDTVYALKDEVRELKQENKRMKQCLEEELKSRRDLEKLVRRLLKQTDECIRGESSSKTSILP
# UniProt Q92619: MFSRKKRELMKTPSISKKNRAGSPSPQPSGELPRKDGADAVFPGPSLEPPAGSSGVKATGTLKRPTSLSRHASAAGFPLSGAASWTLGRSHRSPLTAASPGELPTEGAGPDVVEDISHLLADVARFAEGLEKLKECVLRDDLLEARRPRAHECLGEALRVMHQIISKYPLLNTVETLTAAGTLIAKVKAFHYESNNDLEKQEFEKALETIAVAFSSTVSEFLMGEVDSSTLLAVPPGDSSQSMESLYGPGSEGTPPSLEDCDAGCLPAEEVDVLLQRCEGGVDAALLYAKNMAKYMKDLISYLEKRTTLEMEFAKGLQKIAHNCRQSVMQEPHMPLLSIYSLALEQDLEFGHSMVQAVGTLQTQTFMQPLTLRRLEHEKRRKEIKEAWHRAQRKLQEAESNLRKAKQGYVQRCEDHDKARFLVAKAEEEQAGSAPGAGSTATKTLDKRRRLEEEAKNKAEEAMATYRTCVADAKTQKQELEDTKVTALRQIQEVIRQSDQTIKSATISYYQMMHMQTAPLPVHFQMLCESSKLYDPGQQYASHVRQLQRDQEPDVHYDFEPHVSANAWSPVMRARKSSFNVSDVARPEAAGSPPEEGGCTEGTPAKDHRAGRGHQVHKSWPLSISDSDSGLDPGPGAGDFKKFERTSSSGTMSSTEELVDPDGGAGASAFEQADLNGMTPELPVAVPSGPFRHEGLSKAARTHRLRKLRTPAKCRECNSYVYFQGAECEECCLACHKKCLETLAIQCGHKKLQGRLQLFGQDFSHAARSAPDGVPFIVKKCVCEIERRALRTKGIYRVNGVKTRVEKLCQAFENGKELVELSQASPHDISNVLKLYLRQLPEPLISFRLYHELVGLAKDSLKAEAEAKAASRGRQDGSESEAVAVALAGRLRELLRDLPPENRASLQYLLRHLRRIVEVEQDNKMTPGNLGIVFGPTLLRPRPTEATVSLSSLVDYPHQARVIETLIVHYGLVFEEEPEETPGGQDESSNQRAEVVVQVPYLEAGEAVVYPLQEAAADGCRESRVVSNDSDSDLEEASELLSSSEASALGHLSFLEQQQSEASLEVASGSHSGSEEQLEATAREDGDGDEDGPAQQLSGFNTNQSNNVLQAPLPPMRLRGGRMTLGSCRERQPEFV
# UniProt Q8N8R7: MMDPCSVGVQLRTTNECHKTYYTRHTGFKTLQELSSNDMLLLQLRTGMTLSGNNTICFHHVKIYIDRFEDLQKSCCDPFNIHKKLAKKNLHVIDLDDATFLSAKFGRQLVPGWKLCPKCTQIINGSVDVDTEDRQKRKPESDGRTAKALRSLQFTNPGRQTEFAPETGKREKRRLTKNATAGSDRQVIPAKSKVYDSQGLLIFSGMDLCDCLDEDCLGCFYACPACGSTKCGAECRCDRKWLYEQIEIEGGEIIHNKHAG
# UniProt P27540, whole entry, looked up: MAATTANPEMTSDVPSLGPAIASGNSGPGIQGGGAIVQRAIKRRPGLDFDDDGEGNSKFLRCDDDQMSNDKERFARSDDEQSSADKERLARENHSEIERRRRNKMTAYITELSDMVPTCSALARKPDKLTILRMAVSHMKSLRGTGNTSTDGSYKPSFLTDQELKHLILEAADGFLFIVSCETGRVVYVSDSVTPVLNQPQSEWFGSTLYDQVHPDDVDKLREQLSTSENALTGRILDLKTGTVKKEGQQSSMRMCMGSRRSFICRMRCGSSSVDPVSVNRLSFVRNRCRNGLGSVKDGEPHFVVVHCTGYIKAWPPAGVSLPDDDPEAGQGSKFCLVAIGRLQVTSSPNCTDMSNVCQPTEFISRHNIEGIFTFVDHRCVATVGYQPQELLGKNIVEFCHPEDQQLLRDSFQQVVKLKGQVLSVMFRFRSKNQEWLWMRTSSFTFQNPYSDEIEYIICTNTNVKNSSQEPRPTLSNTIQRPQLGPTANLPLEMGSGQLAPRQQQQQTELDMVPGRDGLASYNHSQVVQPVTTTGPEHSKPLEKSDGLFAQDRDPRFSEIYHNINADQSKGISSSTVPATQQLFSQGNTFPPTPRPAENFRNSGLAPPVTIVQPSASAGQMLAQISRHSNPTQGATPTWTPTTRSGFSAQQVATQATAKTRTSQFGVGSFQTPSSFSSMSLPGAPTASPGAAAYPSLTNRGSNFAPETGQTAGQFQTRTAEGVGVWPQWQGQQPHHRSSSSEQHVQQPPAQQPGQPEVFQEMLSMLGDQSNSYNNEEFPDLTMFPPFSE
# UniProt Q92888: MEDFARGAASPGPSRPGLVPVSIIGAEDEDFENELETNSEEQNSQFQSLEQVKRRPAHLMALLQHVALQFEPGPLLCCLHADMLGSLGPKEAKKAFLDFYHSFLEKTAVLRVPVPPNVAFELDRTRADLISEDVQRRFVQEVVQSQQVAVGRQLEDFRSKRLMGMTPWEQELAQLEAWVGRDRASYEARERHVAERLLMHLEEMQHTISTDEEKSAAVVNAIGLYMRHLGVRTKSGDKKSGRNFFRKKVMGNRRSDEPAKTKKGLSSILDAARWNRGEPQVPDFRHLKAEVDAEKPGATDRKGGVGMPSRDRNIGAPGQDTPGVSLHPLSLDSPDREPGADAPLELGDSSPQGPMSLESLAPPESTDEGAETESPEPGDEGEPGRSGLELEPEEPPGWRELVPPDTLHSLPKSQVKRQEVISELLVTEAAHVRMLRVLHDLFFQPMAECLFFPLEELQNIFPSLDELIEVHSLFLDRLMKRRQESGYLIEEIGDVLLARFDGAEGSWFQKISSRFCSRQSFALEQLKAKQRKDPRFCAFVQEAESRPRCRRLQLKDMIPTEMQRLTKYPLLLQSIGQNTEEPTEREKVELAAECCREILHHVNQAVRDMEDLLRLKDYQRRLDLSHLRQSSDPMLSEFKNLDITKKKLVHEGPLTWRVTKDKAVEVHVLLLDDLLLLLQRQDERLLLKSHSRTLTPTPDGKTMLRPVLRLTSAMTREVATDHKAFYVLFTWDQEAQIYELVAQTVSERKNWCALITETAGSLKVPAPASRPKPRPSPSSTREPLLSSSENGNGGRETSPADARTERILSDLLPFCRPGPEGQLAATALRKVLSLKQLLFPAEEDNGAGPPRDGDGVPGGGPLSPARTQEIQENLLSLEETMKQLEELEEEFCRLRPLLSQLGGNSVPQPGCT
# UniProt Q0VD83: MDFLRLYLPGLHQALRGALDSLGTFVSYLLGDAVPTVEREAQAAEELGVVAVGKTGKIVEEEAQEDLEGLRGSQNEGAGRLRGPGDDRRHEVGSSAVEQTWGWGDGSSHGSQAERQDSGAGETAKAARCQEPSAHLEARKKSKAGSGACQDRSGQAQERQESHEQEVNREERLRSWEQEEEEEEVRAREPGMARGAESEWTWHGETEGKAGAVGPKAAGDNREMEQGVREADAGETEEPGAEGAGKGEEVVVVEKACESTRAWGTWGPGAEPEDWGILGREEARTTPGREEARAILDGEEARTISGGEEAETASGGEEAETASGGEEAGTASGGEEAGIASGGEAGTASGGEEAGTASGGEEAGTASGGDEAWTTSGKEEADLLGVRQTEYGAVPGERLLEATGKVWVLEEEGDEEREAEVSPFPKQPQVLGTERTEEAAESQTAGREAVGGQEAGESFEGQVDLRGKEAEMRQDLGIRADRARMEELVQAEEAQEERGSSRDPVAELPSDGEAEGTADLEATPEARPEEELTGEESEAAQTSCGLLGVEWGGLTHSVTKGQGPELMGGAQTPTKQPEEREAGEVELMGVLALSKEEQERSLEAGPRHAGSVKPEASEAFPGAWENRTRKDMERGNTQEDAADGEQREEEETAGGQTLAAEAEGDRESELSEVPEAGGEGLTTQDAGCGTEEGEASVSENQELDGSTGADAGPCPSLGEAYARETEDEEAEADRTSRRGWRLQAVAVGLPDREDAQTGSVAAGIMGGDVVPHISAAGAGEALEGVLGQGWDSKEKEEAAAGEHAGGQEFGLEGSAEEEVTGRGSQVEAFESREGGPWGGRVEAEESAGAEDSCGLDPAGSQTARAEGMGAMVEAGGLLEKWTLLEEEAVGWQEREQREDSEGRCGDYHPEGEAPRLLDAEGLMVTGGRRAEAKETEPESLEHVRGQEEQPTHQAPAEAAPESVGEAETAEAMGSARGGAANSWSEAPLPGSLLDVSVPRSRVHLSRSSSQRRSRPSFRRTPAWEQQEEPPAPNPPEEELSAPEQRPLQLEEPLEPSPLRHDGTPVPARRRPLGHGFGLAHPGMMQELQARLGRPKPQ
# UniProt Q9Y2Y0: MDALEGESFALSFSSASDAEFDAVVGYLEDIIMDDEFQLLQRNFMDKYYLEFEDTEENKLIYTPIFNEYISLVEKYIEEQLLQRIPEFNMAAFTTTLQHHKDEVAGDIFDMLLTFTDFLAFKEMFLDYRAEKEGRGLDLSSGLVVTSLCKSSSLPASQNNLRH
# UniProt Q9HCE6: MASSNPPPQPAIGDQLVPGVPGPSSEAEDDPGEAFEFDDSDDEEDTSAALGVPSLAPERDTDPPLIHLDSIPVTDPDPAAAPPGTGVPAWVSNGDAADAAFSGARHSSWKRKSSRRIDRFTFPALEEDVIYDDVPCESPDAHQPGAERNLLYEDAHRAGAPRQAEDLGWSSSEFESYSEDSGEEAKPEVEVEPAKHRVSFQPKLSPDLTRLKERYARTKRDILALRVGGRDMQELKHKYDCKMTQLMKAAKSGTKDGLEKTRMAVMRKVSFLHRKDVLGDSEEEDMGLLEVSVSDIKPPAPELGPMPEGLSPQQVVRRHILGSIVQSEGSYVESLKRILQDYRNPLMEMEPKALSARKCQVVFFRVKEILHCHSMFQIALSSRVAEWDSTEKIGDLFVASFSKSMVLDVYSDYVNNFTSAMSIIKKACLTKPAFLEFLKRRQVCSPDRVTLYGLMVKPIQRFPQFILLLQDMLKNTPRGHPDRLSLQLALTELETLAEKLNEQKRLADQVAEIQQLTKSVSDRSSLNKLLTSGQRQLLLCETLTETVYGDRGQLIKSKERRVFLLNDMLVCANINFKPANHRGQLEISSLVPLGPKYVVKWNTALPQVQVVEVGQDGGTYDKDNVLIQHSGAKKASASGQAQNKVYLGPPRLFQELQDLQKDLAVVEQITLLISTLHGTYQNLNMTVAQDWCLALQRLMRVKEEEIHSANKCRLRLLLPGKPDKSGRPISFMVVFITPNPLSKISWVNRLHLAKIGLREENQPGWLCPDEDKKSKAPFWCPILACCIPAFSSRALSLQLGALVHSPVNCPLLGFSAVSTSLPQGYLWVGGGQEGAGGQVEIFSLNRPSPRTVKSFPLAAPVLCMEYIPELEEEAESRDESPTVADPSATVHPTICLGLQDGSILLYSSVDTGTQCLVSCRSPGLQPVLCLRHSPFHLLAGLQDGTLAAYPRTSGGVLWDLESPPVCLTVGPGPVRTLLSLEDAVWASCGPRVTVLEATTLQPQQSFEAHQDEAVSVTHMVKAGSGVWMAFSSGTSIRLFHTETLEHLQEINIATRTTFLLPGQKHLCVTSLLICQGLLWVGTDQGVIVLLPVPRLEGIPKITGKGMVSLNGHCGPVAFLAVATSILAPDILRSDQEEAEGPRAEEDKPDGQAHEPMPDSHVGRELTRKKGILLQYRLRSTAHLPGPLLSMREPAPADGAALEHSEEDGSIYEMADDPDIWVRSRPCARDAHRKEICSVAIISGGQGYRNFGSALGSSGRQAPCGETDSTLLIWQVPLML
# UniProt P40616: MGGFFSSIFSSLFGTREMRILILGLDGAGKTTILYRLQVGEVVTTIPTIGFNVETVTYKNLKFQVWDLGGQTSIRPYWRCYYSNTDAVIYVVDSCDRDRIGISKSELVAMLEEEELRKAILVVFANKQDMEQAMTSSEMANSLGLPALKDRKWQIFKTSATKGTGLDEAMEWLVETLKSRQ
# Compound: CC1Cc2ccccc2N1C(=O)C1CCCN(C1)C(=O)CCl (mixture of isomers) [TRIM25 ligand 11 (diastereomer mixture)]
# Test: probe-labelled cysteine peptide fold change vs DMSO (competition) (log2 fold change); higher = less target engagement (more negative = stronger competition)
# Settings: THP-1, incubation time: 4 h
# 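Further: competitive chemoproteomic profiling in live THP-1 cells with an iodoacetamide desthiobiotin (IA-DTB) probe, comparing probe-labelled peptide intensities in compound-treated cells against DMSO-treated controls.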
Target,probe-labelled cysteine peptide fold change (10 µM),probe-labelled cysteine peptide fold change (50 µM)
ARAP1_Q96P48_376_FISVACISHVAAIGDQKFEVITNNR (UniProt Q96P48),-0.24,0.202
APPL1_Q9UKG1_570_LTFPLPCVVLYATHQENKR (UniProt Q9UKG1),0.0343,0.102
ARHGEF6_Q15052_66_FCLDPQTEADCINNINDFLK (UniProt Q15052),0.119,-0.105
ARHGAP45_Q92619_739+747_CLETLAIQCGHK (UniProt Q92619),0.0611,-0.0404
ARAF_P10398_192_TQHCDPEHFPFPAPANAPLQR (UniProt P10398),0.038,0.0935
ARMT1_Q9H993_398_WEFSVPFHQALNGFHPAPLCTIR (UniProt Q9H993),-0.325,-0.0825
ARMC8_Q8IUR7_168_YTQEYICQIFSHCCK (UniProt Q8IUR7),0.0343,0.117
ARHGAP9_Q9BRR9_542_DQVFGCQLESLCQR (UniProt Q9BRR9),0.0968,-0.0738
ARFGEF1_Q9Y6D6_1729_QETSSLACGLR (UniProt Q9Y6D6),-0.0334,0.232
ARHGAP1_Q07960_91_IIVFSACR (UniProt Q07960),-0.111,0.0117
ARMC6_Q6NXE6_121_FCDQCK (UniProt Q6NXE6),-0.0445,0.00978
APPL1_Q9UKG1_368_KDHEEWICTINNISK (UniProt Q9UKG1),-0.0696,-0.109
ARL14EP_Q8N8R7_5_MDPCSVGVQLR (UniProt Q8N8R7),-0.366,-0.333
APPL1_Q9UKG1_341_YCFQITSFDGK (UniProt Q9UKG1),0.129,0.216
ARHGEF18_Q6ZSZ5_494_LFPCADDLLETHSHFLAR (UniProt Q6ZSZ5),0.035,-0.127
ARHGEF2_Q92974_478_KLIHDGCLLWK (UniProt Q92974),-0.223,-0.0788
ARIH2_O95376_310_NGGCNHMQCSK (UniProt O95376),-0.0326,-0.0548
ARL14EP_Q8N8R7_5_MMDPCSVGVQLR (UniProt Q8N8R7),0.152,-0.0459
ARHGEF2_Q92974_573_TCPSREDFPLIETEDEAYLRR (UniProt Q92974),0.058,-0.000812
ARPC1A_Q92747_279_GCLTFVSK (UniProt Q92747),0.0993,0.129
ARF6_P62330_90_HYYTGTQGLIFVVDCADRDRIDEAR (UniProt P62330),-0.368,0.0425

Target,probe-labelled cysteine peptide fold change (10 µM),probe-labelled cysteine peptide fold change (50 µM)
ARMC1_Q9NVT9_161_NLCEEALLK (UniProt Q9NVT9),-0.0945,0.302
ARHGEF16_Q5VV41_438_LPLLMDTLCLK (UniProt Q5VV41),0.0473,0.378
ARNT_P27540_336_FCLVAIGR (UniProt P27540),-0.112,0.134
ARHGEF6_Q15052_530_IVVHCNNNQDFQEWLEQLNR (UniProt Q15052),0.162,0.239
ARPC1A_Q92747_70_IVTCGADR (UniProt Q92747),-0.0434,0.00419
APPL1_Q9UKG1_616_ICDSVGLAK (UniProt Q9UKG1),0.191,0.123
ARIH2_O95376_340_THGSEYYECSR (UniProt O95376),0.223,-0.0532
ARHGAP25_P42331-2_147_VAGTPCGAVFGQR (UniProt P42331),-0.0269,0.0654
AQR_O60306_28_KIVAPTVSQINAEFVTQLACK (UniProt O60306),0.0261,-0.0383
ARHGAP30_Q7Z6I6_1021_RTQTCTEGGDYCLIPR (UniProt Q7Z6I6),0.285,0.271
ARID1A_O14497_1874_TELLPSRPHAPCPPAPR (UniProt O14497),0.112,-0.145
ARHGEF1_Q92888_815_ILSDLLPFCRPGPEGQLAATALR (UniProt Q92888),-0.0893,-0.349
ARIH1_Q9Y4X5_304+307_QFCFNCGENWHDPVK (UniProt Q9Y4X5),0.0751,-0.185
ARFRP1_Q13795_19_DEYCILILGLDNAGK (UniProt Q13795),-0.000377,0.223
ARHGEF2_Q92974_383_RHGVQECILLVTQR (UniProt Q92974),0.0772,0.254
ARHGAP45_Q92619_809_LCQAFENGK (UniProt Q92619),-0.0731,0.0183
ARAP1_Q96P48_900_AVFPEGPCEEPLQLRK (UniProt Q96P48),-0.0398,-0.145
ARHGAP25_P42331_448_CFLTSAFQGANSSK (UniProt P42331),-0.145,-0.264
ARL6IP1_Q15041_109_FHEICSNLVK (UniProt Q15041),0.0835,0.0223
ARIH1_Q9Y4X5_362_DGGCNHMVCR (UniProt Q9Y4X5),-0.0147,-0.0438
ARHGEF18_Q6ZSZ5_105_LSLDASAVDEEPCLPR (UniProt Q6ZSZ5),-0.0696,-0.0183

Target,probe-labelled cysteine peptide fold change (10 µM),probe-labelled cysteine peptide fold change (50 µM)
ARHGAP26_Q9UNA1_142_YCGILEK (UniProt Q9UNA1),-0.123,-0.0292
ARHGEF6_Q15052_25_KTICDPEEFLK (UniProt Q15052),-0.021,-0.308
ARNT_P27540_119_MTAYITELSDMVPTCSALAR (UniProt P27540),0.0314,-0.155
ARMC7_Q9H6L4_144_SFLPELTATPVVQCMLR (UniProt Q9H6L4),-0.0899,0.0296
ARHGEF6_Q15052_182_QTNEDELSVCK (UniProt Q15052),-0.0147,-0.0327
ARNT_P27540_265_RSFICR (UniProt P27540),-0.00972,0.125
ARMH3_Q5T2E6_80_DNINCLFQHCIQALGEEHPIR (UniProt Q5T2E6),-0.195,0.135
ARHGEF40_Q8TER5_636_LLILIHDDLPTELCGFQGAEVLSENDLKR (UniProt Q8TER5),0.00222,-0.149
ARHGAP35_Q9NRY4_89_SLEDCVECK (UniProt Q9NRY4),0.12,0.0982
APOBR_Q0VD83_257_ACESTR (UniProt Q0VD83),0.201,0.222
APOBR_Q0VD83_149_AGSGACQDR (UniProt Q0VD83),-0.136,-0.202
ARL6IP4_Q66PJ3-3_220_NCSASTSQER (UniProt Q66PJ3),-0.0967,-0.0385
ARIH1_Q9Y4X5_269_YQHLITNSFVECNR (UniProt Q9Y4X5),0.0732,-0.0578
ARHGAP4_P98171_349_FDYHPHDGDEVAEICVEMELRDEILPR (UniProt P98171),0.132,0.137
ARL2BP_Q9Y2Y0_149_GLDLSSGLVVTSLCK (UniProt Q9Y2Y0),-0.0154,-0.0879
ARAP1_Q96P48_900_AVFPEGPCEEPLQLR (UniProt Q96P48),-0.0195,-0.149
ARHGAP45_Q92619_747_CLETLAIQCGHK (UniProt Q92619),-0.0234,-0.00666
ARHGEF1_Q92888_815_ILSDLLPFCR (UniProt Q92888),0.0201,-0.139
ARMC1_Q9NVT9_40_AIVQDQGCLPGLILFMDHPNPPVVHSALLALR (UniProt Q9NVT9),-0.016,-0.119
ARID2_Q68CP9_1814_CLYELNFTVQSK (UniProt Q68CP9),-0.00908,0.103
ARHGEF2_Q92974_478_LIHDGCLLWK (UniProt Q92974),0.0428,0.0708

Target,probe-labelled cysteine peptide fold change (10 µM),probe-labelled cysteine peptide fold change (50 µM)
ARIH1_Q9Y4X5_281_WCPAPDCHHVVK (UniProt Q9Y4X5),0.128,0.0177
ARHGEF2_Q92974_282_TGMLEELHLEPGVVQGLFPCVDELSDIHTR (UniProt Q92974),-0.139,-0.128
ARHGAP30_Q7Z6I6_965_IHVAPANPCPRPGR (UniProt Q7Z6I6),0.0724,-0.157
ARHGEF1_Q92888_892_QLEELEEEFCR (UniProt Q92888),-0.151,-0.0816
ARHGEF10L_Q9HCE6_988_TLLSLEDAVWASCGPR (UniProt Q9HCE6),0.22,0.124
ARMH3_Q5T2E6_105_VVNALQTLCALIR (UniProt Q5T2E6),0.188,0.437
APOBR_Q0VD83_895_CGDYHPEGEAPR (UniProt Q0VD83),0.0339,-0.0535
ARHGAP30_Q7Z6I6_654_QALGQGGEEQACWEVGEDK (UniProt Q7Z6I6),-0.162,-0.317
ARID4A_P29374_211_DQCLVR (UniProt P29374),-0.12,-0.203
ARHGAP25_P42331_302_FLHEIQLNCAVNK (UniProt P42331),0.0542,0.122
ARHGAP17_Q68EM7_53_LVACFQGQHGTDAER (UniProt Q68EM7),0.242,0.0625
APRT_P07741_153_LQAEVLECVSLVELTSLK (UniProt P07741),-0.00596,0.0782
ARL14EP_Q8N8R7_75_SCCDPFNIHKK (UniProt Q8N8R7),-0.099,-0.0337
ARIH1_Q9Y4X5_327_KCDDDSETSNWIAANTK (UniProt Q9Y4X5),-0.0217,0.0403
ARHGAP4_P98171_102_EPSLLSPLHCWAVLLQHTR (UniProt P98171),0.000307,0.0655
ARHGEF7_Q14155_349_VGGCFLNLMPQMK (UniProt Q14155),0.333,0.184
ARFGEF1_Q9Y6D6_102_IVSTSLDCLQK (UniProt Q9Y6D6),-0.0997,-0.0175
ARMC6_Q6NXE6_484_DLGCHVELR (UniProt Q6NXE6),-0.0195,-0.0823
ARHGEF2_Q92974_306_RQALCPGSTR (UniProt Q92974),0.0447,0.106
ARL1_P40616_80+95_CYYSNTDAVIYVVDSCDRDR (UniProt P40616),0.209,0.066
ARHGAP26_Q9UNA1_11+12_GLPALEFSDCCLDSPHFR (UniProt Q9UNA1),0.341,0.048

# Random excerpt: six records from the list.
Target,probe-labelled cysteine peptide fold change (10 µM),probe-labelled cysteine peptide fold change (50 µM)
ARHGEF10L_Q9HCE6_988_TLLSLEDAVWASCGPR (UniProt Q9HCE6),0.22,0.124
ARL1_P40616_80+95_CYYSNTDAVIYVVDSCDRDR (UniProt P40616),0.209,0.066
ARIH1_Q9Y4X5_281_WCPAPDCHHVVK (UniProt Q9Y4X5),0.128,0.0177
ARMC6_Q6NXE6_484_DLGCHVELR (UniProt Q6NXE6),-0.0195,-0.0823
ARHGAP30_Q7Z6I6_965_IHVAPANPCPRPGR (UniProt Q7Z6I6),0.0724,-0.157
APOBR_Q0VD83_895_CGDYHPEGEAPR (UniProt Q0VD83),0.0339,-0.0535
